Measurements as given in the supplement of paper PMC8728848.
The list shows a part of the results.

Columns and labels:
Assay in all cases: glycan array binding signal (z-score within array); higher = stronger binding
Details in all cases: glycan notation: IUPAC condensed, linker removed
[1] = biological target: Gal(a1-3)Gal(b1-4)GlcNAc(b1-2)Man
How it was run: (§1)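 Negative Z-scores can be read as non-binding. The Z-score is calculated within each array and then averaged across arrays of one protein sequence at different concentrations or buffers and across linkers. Arrays, 3228 in all, were curated from the Consortium for Functional Glycomics database and kept only where the protein sequence was available.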

[2] = biological target: Gal(a1-3)Gal(b1-4)GlcNAc(b1-2)Man(a1-3)[Gal(a1-3)Gal(b1-4)GlcNAc(b1-2)Man(a1-6)]Man(b1-4)GlcNAc(b1-4)GlcNAc
How it was run: as §1

[3] = biological target: Gal(a1-3)Gal(b1-4)GlcNAc(b1-3)GalNAc
How it was run: as §1

[4] = biological target: Gal(a1-3)Gal(b1-4)GlcNAc(b1-6)GalNAc
How it was run: as §1

[5] = biological target: Gal(a1-3)Gal(b1-4)[Fuc(a1-3)]GlcNAc
How it was run: as §1

[6] = biological target: Gal(a1-3)Gal(b1-4)[Fuc(a1-3)]GlcNAc(b1-2)Man(a1-3)[Gal(a1-3)Gal(b1-4)[Fuc(a1-3)]GlcNAc(b1-2)Man(a1-6)]Man(b1-4)GlcNAc(b1-4)GlcNAc
How it was run: as §1

Gal(a1-3)GalNAc = biological target: Gal(a1-3)GalNAc
How it was run: as §1

[7] = biological target: Gal(a1-3)[Gal(a1-4)]Gal(b1-4)GlcNAc
How it was run: as §1

[8] = biological target: Gal(a1-4)Gal(b1-3)GlcNAc(b1-2)Man(a1-3)[Gal(a1-4)Gal(b1-3)GlcNAc(b1-2)Man(a1-6)]Man(b1-4)GlcNAc(b1-4)GlcNAc
How it was run: as §1

Gal(a1-4)Gal(b1-4)Glc = biological target: Gal(a1-4)Gal(b1-4)Glc
How it was run: as §1

Gal(a1-4)Gal(b1-4)GlcNAc = biological target: Gal(a1-4)Gal(b1-4)GlcNAc
How it was run: as §1

[9] = biological target: Gal(a1-4)Gal(b1-4)GlcNAc(b1-2)Man(a1-3)[Gal(a1-4)Gal(b1-4)GlcNAc(b1-2)Man(a1-6)]Man(b1-4)GlcNAc(b1-4)GlcNAc
How it was run: as §1

[10] = biological target: Gal(a1-4)Gal(b1-4)GlcNAc(b1-3)Gal(b1-4)Glc
How it was run: as §1

Gal(a1-4)GlcNAc = biological target: Gal(a1-4)GlcNAc
How it was run: as §1

Gal(a1-6)Glc = biological target: Gal(a1-6)Glc
How it was run: as §1

Gal(b1-2)Gal = biological target: Gal(b1-2)Gal
How it was run: as §1

Gal(b1-3)Gal = biological target: Gal(b1-3)Gal
How it was run: as §1

Gal(b1-3)Gal(b1-4)GlcNAc = biological target: Gal(b1-3)Gal(b1-4)GlcNAc
How it was run: as §1

Gal(b1-3)GalNAc = biological target: Gal(b1-3)GalNAc
How it was run: as §1

[11] = biological target: Gal(b1-3)GalNAc(a1-3)[Fuc(a1-2)]Gal(b1-4)Glc
How it was run: as §1

[12] = biological target: Gal(b1-3)GalNAc(a1-3)[Fuc(a1-2)]Gal(b1-4)GlcNAc
How it was run: as §1

Gal(b1-3)GalNAc(b1-3)Gal = biological target: Gal(b1-3)GalNAc(b1-3)Gal
How it was run: as §1

[13] = biological target: Gal(b1-3)GalNAc(b1-3)Gal(a1-4)Gal(b1-4)Glc
How it was run: as §1

[14] = biological target: Gal(b1-3)GalNAc(b1-4)Gal(b1-4)Glc
How it was run: as §1

[15] = biological target: Gal(b1-3)GalNAc(b1-4)[Neu5Ac(a2-3)]Gal(b1-4)Glc
How it was run: as §1

Gal(b1-3)GlcNAc = biological target: Gal(b1-3)GlcNAc
How it was run: as §1

[16] = biological target: Gal(b1-3)GlcNAc(a1-3)Gal(b1-4)GlcNAc
How it was run: as §1

[17] = biological target: Gal(b1-3)GlcNAc(a1-6)Gal(b1-4)GlcNAc
How it was run: as §1

Gal(b1-3)GlcNAc(b1-2)Man = biological target: Gal(b1-3)GlcNAc(b1-2)Man
How it was run: as §1

[18] = biological target: Gal(b1-3)GlcNAc(b1-2)Man(a1-3)[Gal(b1-3)GlcNAc(b1-2)Man(a1-6)]Man(b1-4)GlcNAc(b1-4)GlcNAc
How it was run: as §1

[19] = biological target: Gal(b1-3)GlcNAc(b1-2)Man(a1-3)[Gal(b1-3)GlcNAc(b1-2)Man(a1-6)]Man(b1-4)GlcNAc(b1-4)[Fuc(a1-6)]GlcNAc
How it was run: as §1

[20] = biological target: Gal(b1-3)GlcNAc(b1-2)Man(a1-3)[GlcNAc(b1-4)][Gal(b1-3)GlcNAc(b1-2)Man(a1-6)]Man(b1-4)GlcNAc(b1-4)GlcNAc
How it was run: as §1

[21] = biological target: Gal(b1-3)GlcNAc(b1-2)[Gal(b1-3)GlcNAc(b1-6)]Man(a1-6)[Gal(b1-3)GlcNAc(b1-2)Man(a1-3)]Man(b1-4)GlcNAc(b1-4)GlcNAc
How it was run: as §1

[22] = biological target: Gal(b1-3)GlcNAc(b1-3)Gal(b1-3)GlcNAc
How it was run: as §1

[23] = biological target: Gal(b1-3)GlcNAc(b1-3)Gal(b1-4)Glc
How it was run: as §1

[24] = biological target: Gal(b1-3)GlcNAc(b1-3)Gal(b1-4)GlcNAc
How it was run: as §1

[25] = biological target: Gal(b1-3)GlcNAc(b1-3)Gal(b1-4)GlcNAc(b1-2)Man(a1-3)[Gal(b1-3)GlcNAc(b1-3)Gal(b1-4)GlcNAc(b1-2)Man(a1-6)]Man(b1-4)GlcNAc(b1-4)GlcNAc
How it was run: as §1

[26] = biological target: Gal(b1-3)GlcNAc(b1-3)Gal(b1-4)GlcNAc(b1-2)[Gal(b1-3)GlcNAc(b1-3)Gal(b1-4)GlcNAc(b1-6)]Man(a1-6)[Gal(b1-3)GlcNAc(b1-3)Gal(b1-4)GlcNAc(b1-2)Man(a1-3)]Man(b1-4)GlcNAc(b1-4)[Fuc(a1-6)]GlcNAc
How it was run: as §1

[27] = biological target: Gal(b1-3)GlcNAc(b1-3)Gal(b1-4)GlcNAc(b1-3)Gal(b1-4)GlcNAc(b1-2)[Gal(b1-3)GlcNAc(b1-3)Gal(b1-4)GlcNAc(b1-3)Gal(b1-4)GlcNAc(b1-6)]Man(a1-6)[Gal(b1-3)GlcNAc(b1-3)Gal(b1-4)GlcNAc(b1-3)Gal(b1-4)GlcNAc(b1-2)Man(a1-3)]Man(b1-4)GlcNAc(b1-4)[Fuc(a1-6)]GlcNAc
How it was run: as §1

[28] = biological target: Gal(b1-3)GlcNAc(b1-3)Gal(b1-4)GlcNAc(b1-6)[Gal(b1-3)GlcNAc(b1-3)]Gal(b1-4)Glc
How it was run: as §1

[29] = biological target: Gal(b1-3)GlcNAc(b1-3)Gal(b1-4)[Fuc(a1-3)]GlcNAc
How it was run: as §1

[30] = biological target: Gal(b1-3)GlcNAc(b1-3)Gal(b1-4)[Fuc(a1-3)]GlcNAc(b1-6)[Gal(b1-3)GlcNAc(b1-3)]Gal(b1-4)Glc
How it was run: as §1

[31] = biological target: Gal(b1-3)GlcNAc(b1-3)GalNAc
How it was run: as §1

[32] = biological target: Gal(b1-3)GlcNAc(b1-6)Gal(b1-4)GlcNAc
How it was run: as §1

[33] = biological target: Gal(b1-3)GlcNAc(b1-6)GalNAc
How it was run: as §1

B1: Mermaid2 (Stilbonema majum) (protein)
chain: MGSSHHHHHHSSGLVPRGSHMAASGWLRSPQGTVVKLYRRSLSWSKADEFCKDVDGRLVVDRTADMHLFLIKNVLKEKKSRVWVGLRRTAPHSRTWIWSDGTRQNEDDLNTNLWLRDEPNDAAGEEECALFMYSPWEKAWGLNDYLCRGGCRSYQFICEKGIR
glycan array binding signal (z-score) [1]: -0.581
glycan array binding signal (z-score) [2]: -0.676
glycan array binding signal (z-score) [3]: 0.117
glycan array binding signal (z-score) [4]: -0.566
glycan array binding signal (z-score) [5]: -0.408
glycan array binding signal (z-score) [6]: 1.95
glycan array binding signal (z-score) (Gal(a1-3)GalNAc): -0.634
glycan array binding signal (z-score) [7]: -0.18
glycan array binding signal (z-score) [8]: -0.225
glycan array binding signal (z-score) (Gal(a1-4)Gal(b1-4)Glc): -0.176
glycan array binding signal (z-score) (Gal(a1-4)Gal(b1-4)GlcNAc): 0.076
glycan array binding signal (z-score) [9]: 0.443
glycan array binding signal (z-score) [10]: -0.363
glycan array binding signal (z-score) (Gal(a1-4)GlcNAc): 0.2
glycan array binding signal (z-score) (Gal(a1-6)Glc): -0.797
glycan array binding signal (z-score) (Gal(b1-2)Gal): -0.539
glycan array binding signal (z-score) (Gal(b1-3)Gal): 0.318
glycan array binding signal (z-score) (Gal(b1-3)Gal(b1-4)GlcNAc): 0.038
glycan array binding signal (z-score) (Gal(b1-3)GalNAc): 1.35
glycan array binding signal (z-score) [11]: 3.31
glycan array binding signal (z-score) [12]: 2.24
glycan array binding signal (z-score) (Gal(b1-3)GalNAc(b1-3)Gal): -0.208
glycan array binding signal (z-score) [13]: -0.881
glycan array binding signal (z-score) [14]: -0.715
glycan array binding signal (z-score) [15]: -0.572
glycan array binding signal (z-score) (Gal(b1-3)GlcNAc): 0.006
glycan array binding signal (z-score) [16]: -0.546
glycan array binding signal (z-score) [17]: 0.332
glycan array binding signal (z-score) (Gal(b1-3)GlcNAc(b1-2)Man): 0.106
glycan array binding signal (z-score) [18]: -0.704
glycan array binding signal (z-score) [19]: 0.025
glycan array binding signal (z-score) [20]: 0.527
glycan array binding signal (z-score) [21]: 0.323
glycan array binding signal (z-score) [22]: -0.44
glycan array binding signal (z-score) [23]: -0.781
glycan array binding signal (z-score) [24]: -0.423
glycan array binding signal (z-score) [25]: -0.188
glycan array binding signal (z-score) [26]: 0.627
glycan array binding signal (z-score) [27]: 4.69
glycan array binding signal (z-score) [28]: -0.056
glycan array binding signal (z-score) [29]: -0.471
glycan array binding signal (z-score) [30]: -0.521
glycan array binding signal (z-score) [31]: -0.356
glycan array binding signal (z-score) [32]: -0.554
glycan array binding signal (z-score) [33]: -0.967
